Values quoted from earlier work as cited in patent US20240139101A1, “ADVANCED ORAL FILM FORMULATIONS” (INTELGENX CORP., priority 2022, published 2024).
Some results were stated once for a whole list of compounds, not compound by compound.

Conditions: significant hepatic first-pass metabolism

C=C(C)[C@@H]1CCC(C)=C[C@H]1c1c(O)cc(CCCCC)cc1O [CBD, cannabidiol]
bioavailability: 2-8%
